Patent US20250066490A1, “ANTI-CD70 ANTIBODIES, CONJUGATES THEREOF AND METHODS OF USING THE SAME” (ProfoundBio US Co., priority 2021, published 2025)
Results are given in words; binding and its absence hold for the method and conditions named. A result given as binding can be weak or reduced; the word gives no strength.

Molecular target: cynomolgus CD70 recombinant protein (cynomolgus)
Assay: ELISA, coated cynomolgus CD70, IgG titrated

binding: binds
B1: 1F6 (Vorsetuzumab), reference antibody, full IgG (antibody, V domains shown)
VH: QVQLVQSGAEVKKPGASVKVSCKASGYTFTNYGMNWVRQAPGQGLKWMGWINTYTGEPTYADAFKGRVTMTRDTSISTAYMELSRLRSDDTAVYYCARDYGDYGMDYWGQGTTVTVSS
VL: DIVMTQSPDSLAVSLGERATINCRASKSVSTSGYSFMHWYQQKPGQPPKLLIYLASNLESGVPDRFSGSGSGTDFTLTISSLQAEDVAVYYCQHSREVPWTFGQGTKVEIK
